Entries after “also recorded” stand apart in the source; their conditions may differ.
Columns and labels:
[1] = tested on: HOXC13-AS–WDR5^WT complex; conditions: iv-RIP, U-2 OS RNA, 10 μM
HOTTIP–WDR5^WT complex = conditions: iv-RIP, U-2 OS RNA, 10 μM

CNC(=O)c1cc(C2(C#N)CCC2)cc(NS(=O)(=O)c2cc(Br)cc(Cl)c2O)c1O [7k, 3-((5-Bromo-3-chloro-2-hydroxyphenyl)sulfonamido)-5-(1cyanocyclobutyl)-2-hydroxy-N-methylbenzamide]
inhibition of HOXC13-AS–WDR5^WT complex formation [1]: could inhibit lncRNA–WDR5 formation to a level almost similar to the WDR5^F266A mutant; also recorded: could inhibit HOTTIP–WDR5^WT and HOXC13-AS–WDR5^WT complex formation (Fig. 3) but the effect was moderate
inhibition of HOTTIP–WDR5^WT complex formation (HOTTIP–WDR5^WT complex): could inhibit lncRNA–WDR5 formation to a level almost similar to the WDR5^F266A mutant; also recorded: could inhibit HOTTIP–WDR5^WT and HOXC13-AS–WDR5^WT complex formation (Fig. 3) but the effect was moderate
